How the values were obtained:
[1] = tested on: Trypanosoma cruzi epimastigotes (Tulahuen strain); assay: Growth inhibition of epimastigotes (cell counting, 4 days); format: cell-based; conditions: for Epimastigotes SI: CC50 Vero cells / IC50 epimastigotes
Description: (§1) Trypanosoma cruzi epimastigotes (Tulahuen strain) were grown as previously described. Bloodstream trypomastigotes were obtained from infected CF1 mice by cardiac puncture. Tulahuen strain expressing the β-galactosidase gene was kindly provided by Dr Buckner (University of Washington, USA).
Cells growth was assessed by counting the number of cells per mL of culture using a Neubauer chamber and was expressed as cellular density (CD). The percentage of inhibition (%I) was calculated as %I = {1 − [(CD4t − CD0)/(CD4c − CD0)]} × 100, where the different CDs represent the cellular density of CD4t, treated parasites on day 4; CD0, parasites on day 0; and CD4c, untreated parasites (control) on day 4.
(§2) The results presented are representative of three to four separate experiments, performed in duplicates or triplicates. All data are expressed as means ± standard errors of the mean (SEM). To calculate the IC50 values, the %I or %L values were plotted against the log of drug concentration (μM) and fitted with a straight line determined by a linear regression (Sigma Plot 10 software). The significance of differences was evaluated using Student' t test, taking a P < 0.05 as significant. Flow cytometry data were analyzed employing the WinMDI 2.9 software.

[2] = tested on: amastigotes (Tulahuen strain expressing the β-galactosidase gene) in J774 cells; assay: Amastigote assay in infected J774 cells (β-galactosidase, CPRG); format: cell-based, Trypanosoma cruzi; conditions: CC50 Vero cells / IC50 amastigotes
Description: as §1
For analysis of amastigotes, J774 cells were infected with bloodstream trypomastigotes expressing the β-galactosidase gene at a parasite: cell ratio of 10 : 1. After 24 h, cell cultures were washed and each compound (2 to 100 μM) was added in fresh RPMI medium without phenol red (to avoid interference with absorbance readings at 570 nm). After 7 days, the assay was developed as described. The galactosidase activity was quantified using CPRG as substrate and measuring absorbance at 570 nm in a Microplate Reader (Bio-Rad Laboratories). Since the assayed compounds are coloured, blanks including uninfected cells with different doses of each compound were performed. The percentage of inhibition was calculated as %I = {1 − [(A it − A nit)/(A ic − A nic)]} × 100, where A represents the mean A 570 value recorded for A it, treated infected cells; A nit, treated noninfected cells; A ic, untreated infected cells; and A nic, untreated noninfected cells.
as §2

| Structure (SMILES) | Epimastigotes SI [1] | times more active than Bnz on the epimastigote form ([1]; from IC50 values of Table 1) [times] | Amastigotes SI [2] |
| --- | --- | --- | --- |
| O=C(Cn1ccnc1[N+](=O)[O-])NCc1ccccc1 [Bnz, Benznidazole, reference compound] | 15.1 |  |  |
| O=c1c2ccccc2c(C(=S)Nc2ccccc2)c2n1CCN2 [Compound C1, N-phenyl-5-oxo-1,2,3,5-tetrahydroimidazo[1,2-b]isoquinolin-10-carbothioamide] | >67.1 | 3.5 | >57.5 |
| O=c1c2ccccc2c(C(=S)Nc2ccc(Cl)cc2)c2n1CCN2 [Compound C2, N-(4-chlorophenyl)-5-oxo-1,2,3,5-tetrahydroimidazo[1,2-b]isoquinolin-10-carbothioamide] | >18.0 |  | >27.5 |
| Cc1ccc(NC(=S)c2c3n(c(=O)c4ccccc24)CCN3)cc1 [Compound C3] | >66.7 |  | >66.7 |
